The results in this text go back to article PMC10876603.

Results are given in words; binding and its absence hold for the method and conditions named. Binding calls can cover weak binding; strength is not graded here. For some assays here: In cells and extracts the contact can be indirect.

For test [1], the target named is Xenopus INCENP with N-terminal 6xHIS tag (Xenopus laevis) (UniProt O13024). Description: SEC; four subunits co-expressed in E. coli, captured on Ni2+ resin by the 6xHIS tag of INCENP, then Superdex 200 in 50 mM Tris pH 7.9, 500 mM NaCl, 5% glycerol, 0.5 mM TCEP (high salt); identity of all four subunits confirmed by mass spectrometry. A general note: SEC sorts molecules by how far they enter the pores of the column.

Test [2] shares this target. The test can be described thus: co-sedimentation; purified CEN or CPC diluted into buffer with 150 mM NaCl to induce phase separation, 21,130 RCF 5 min at 23 °C, pellet analysed by SDS-PAGE against input; subunits were co-expressed and co-purified.

For “Xenopus Survivin-B (from UniProt Q8JGN5)”, the binding result in test [1] and in test [2] was “binds” each time.
